# Primary screen of a compound library

From ChEMBL document CHEMBL3988442, “University of Dundee, Small-Polar-MMV Screening Library” (2021).

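Growth of Mycobacterium tuberculosis over 3 days (7H9 medium with glucose and tyloxapol); the read-out is not stated. Concentration: 50 µM. Direction is inferred from retests: higher values go with more growth inhibition. About 69,000 compounds were tested under these conditions; 1.1% (about 760) showed 50% or more at least once.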

Each number is a percent effect as filed.
How 0% and 100% were set is not recorded. Most values in the screen are low, and negative values occur.
Compounds were drawn at random from those tested, without regard to their results.
Two or more numbers in one place are separate tests of the same structure; such repeats can differ widely.

| compound | Percent Effect |
|---|---|
| `Cc1cnn(CC2CCCN2CC(=O)Nc2nncs2)c1` (stereo not given) | -9.918 |
| `Cn1cc(Cl)cc1C(=O)N1CCCN(Cc2nccn2C)CC1` | 2.876 |
| `CCc1ccc(CN2CCC3(CC(C(=O)NCC(C)C)=NO3)C2)o1` (stereo not given) | 4.207 |
| `Cc1ccc2c(n1)N(CCN(C)C)CCN(C(=O)c1ccoc1)C2.O=C(O)C(F)(F)F.O=C(O)C(F)(F)F` | -22.23 |
| `COc1ccc(OC)c(-c2nc(CN(C)Cc3nncn3C)c(C)o2)c1` | -7.102 and -40.07 |
| `COc1ccc(OCC2CCCN(c3nc(CO)cs3)C2)cc1` (stereo not given) | 7.25 |
| `COCCn1cc(CC(=O)Nc2nc[nH]n2)c2ccccc21` | 22.88 and 5.453 |
| `Cc1cc(=O)n(CC(=O)NCCC(C)C)c(-c2cccc(Cl)c2)n1` | 13.88 |
| `Cn1cc2c(n1)C(COCC1CC1)CN(Cc1ccsc1)C2` (stereo not given) | -21.47 |
| `N#Cc1cccc(OCCN2CCC(C(=O)N3CCOCC3)CC2)c1` | -6.876 |
| `N#Cc1ccc(C(=O)N2C[C@@H](CN3CCCC3)C[C@H](CO)C2)cc1` | 0.04055 and 18.24 |
| `Cc1ccccc1CSCCn1nc2ccccn2c1=O` | 39.89 |
| `CN(C)CCN1CC(C(=O)NCc2cn3cccnc3n2)CC1=O` (stereo not given) | -14.39 and 0.1475 |
| `CC(=O)N1CCC2(C=C(C(=O)NC3CC3)c3ccccc32)CC1` | -7.02 |
| `CC(CN1CCOCC1)NC(=O)c1cc(Cl)c2c(c1)OCO2` (stereo not given) | 9.891 |
| `O=C(NCCc1cccc(Cl)c1)C1CCOCC1` | 2.885 and -11.89 |
| `COc1cc(CNCc2ccc(C(C)O)cc2)cc2c1OCO2` (stereo not given) | -12.39 |
| `Cn1cc(C[C@H]2[C@H](O)CCN2CC2CCOCC2)cn1.O=C(O)C(F)(F)F` | 13.32 |
| `COC(=O)c1ccc(C(=O)NS(=O)(=O)c2cncc(Br)c2)cc1` | -28.48 |
| `Cn1cc2ncn(C3CCN(c4ccccc4F)CC3)c(=O)c2n1` | -28.05 and -1.87 |
| `O=C(c1ccnn1COc1ccc(Cl)cc1)N1CCSCC1` | 9.147 and 9.725 |
| `[H][C@]12CC[C@](O)(CC1)C(CO)N2Cc1ccc(F)cc1` (stereo not given in full) | 25.07 |
| `CCC(NC(=O)c1cnc(-c2cccnc2)nc1)c1ccnn1C` (stereo not given) | -19.53 |
| `CN(C)c1ccc(C(=O)N2CCCN(Cc3cnn(C)c3)CC2)nn1` | -8.514 |
| `COCC(=O)N1CCCC2(CCN(c3ccccc3)C2=O)C1` (stereo not given) | -8.481 |
| `CCC(C#N)NC(=O)CCCOc1cccc(C(C)=O)c1` (stereo not given) | -3.27 and -17.36 |
| `O=C(O)C(F)(F)F.O=C(O)C(F)(F)F.[H][C@@]12CN(Cc3nccs3)C[C@H](C(=O)NCCOC)[C@]1([H])CCO2` | -13.76 |
| `COCC(=O)N1CCN(c2cc(C)nc(C3CCCN3C(C)=O)c2)CC1` (stereo not given) | -31.44 |
| `CS(=O)(=O)c1ccc(CN2CCCCC2c2ccc(F)cc2)cc1` (stereo not given) | -57.61 |
| `CSCCCn1ccnc1-c1cccc(C#N)c1` | -46.04 |
| `CCOCC1CN(C(=O)[C@H]2CCCO2)Cc2nnn(CC3CC3)c21` (stereo not given in full) | -42.59 and -4.47 |
| `[H][C@]12CC[C@]([H])(CN(Cc3ccccc3)C1)N(C(=O)CC(F)(F)F)C2` | 22.33 |
| `O=C(NCC1OCCc2cn(CC3CCOCC3)nc21)c1ccncc1.O=C(O)C(F)(F)F` (stereo not given) | 4.474 |
| `COc1ncc(C(=O)NCc2ccccc2)cn1` | 12.72 |
| `Cc1ccc(C(C)(O)CNC(=O)NCCc2ccc3c(c2)CCO3)o1` (stereo not given) | -8.503 |
| `O=C(OCCNc1ncccn1)c1ccc(Cl)s1` | 56.49 |
| `CCN(CC)C(=O)C1CCN(C(=O)Nc2cccnc2OC)CC1` | -23.83 |
| `Cc1cc(N2CCC3(CCC(=O)N(CCO)C3)CC2)nc(N(C)C)n1` | -40.41 |
| `CC(Cn1cccn1)NC(=O)NCCN1CCc2ccccc2C1` (stereo not given) | 4.475 and -0.9899 |
| `CNC(=O)c1cc(-n2ccnc2-c2cnc(N(C)C)nc2)ccc1OC` | -13.92 |
| `Cc1ccnn1CCC(=O)N1CCCC1c1cc2cccnc2[nH]1.Cl` (stereo not given) | 12.39 |
| `Cc1noc(C)c1CN(C)Cn1c(=O)oc2ccccc21` | -25.34 |
| `O=C(CC1CCCC1)N1CCC(c2noc(-c3ccccn3)n2)CC1` | -13.31 |
| `Cc1cc2c(=O)n3c(nc2s1)CCN(Cc1ccncc1)CC3` | 7.163 |
| `COC(=O)c1cccc2nc([C@H]3CCN(Cc4ccccc4)C3)oc12` | 5.175 and 7.471 |
| `O=S(=O)(C1CC1)N1CCc2ncc(Cn3cccn3)n2CC1` | -1.427 and -14.66 |
| `CCc1nc(C2CCCN2C(=O)CCc2c(C)noc2Cl)no1` (stereo not given) | -11.54 |
| `CNc1ncc(C(=O)N2CCC(c3ccccc3C(=O)O)C2)cn1` (stereo not given) | -0.3444 and -11.47 |
| `CC1(C(N)=O)CCCN(c2cnccn2)C1` (stereo not given) | -9.851 |
| `CN(Cc1ccccc1F)Cc1cc2c(cc1Br)OCCO2` | 18.69 |
| `N#Cc1ccc(OC2CCN(C(=O)c3cncc(Br)c3)CC2)nc1` | -11.99 |
| `CCn1cc2c(n1)C(COC)CN(C(=O)COc1ccccc1)C2` (stereo not given) | -4.273 and 12.56 |
| `CSC(C)C(=O)N1CCCN(c2ncccc2C#N)CC1` (stereo not given) | -3.552 |
| `CCOC(=O)c1cnn(-c2cc(Oc3cc(C)ccc3C)ncn2)c1N` | -22.88 |
| `COc1ccc(F)c(F)c1CN1CCN(CC(C)C)C(=O)C1C` (stereo not given) | 5.739 |
| `CC(NC(=O)COc1ccccc1I)C1CC1` (stereo not given) | 24.22 |
| `CC(Cn1cccn1)C(=O)N1CCC(NS(C)(=O)=O)CC1` (stereo not given) | -24.59 and -2.437 |
| `COCCC1COC2(CCN(C(=O)c3cccnc3)CC2)C1.O=C(O)C(F)(F)F` (stereo not given) | 20.59 |
| `CCC1(CC)CC(=O)N(CC(O)c2ccc(F)cc2)C1=O` (stereo not given) | -13.48 |
| `CC(=O)N1CCCC(c2cnc(-c3c(C)nn(C)c3C)cn2)C1` (stereo not given) | 64.01 |
| `Cc1ncc(CN(C)C(=O)Nc2cccc(CN3CCOC3=O)c2)s1` | 24.59 |
| `CCC(CC)S(=O)(=O)NC(=O)c1ccc2c(c1)ncn2C` | -31.25 |
| `O=C(O)C(F)(F)F.[H][C@@]12CCN(C(=O)c3cocn3)C[C@]1(COc1ncccc1F)CCO2` | 24.91 and 1.187 |
| `COc1ccc(C(C#N)NC(=O)CC2=CCCCC2)c(OC)c1` (stereo not given) | -21.19 |
| `O=C(Cn1c(=O)oc2ccccc21)NCC(O)c1ccc2c(c1)CCO2` (stereo not given) | -3.317 |
| `CN(CCN1CCOC1=O)CC(=O)Nc1ccc(Cl)c(C(F)(F)F)c1` | 17.27 |
| `O=C(CCOc1ccccc1F)N1CCCC(n2cncn2)C1` (stereo not given) | -35.5 |
| `CC(C)C1CN(C(=O)c2ccc(N3CCCC3)nc2)CCS1` (stereo not given) | 13.31 |
| `Cc1ccccc1CN1CCCN(S(=O)(=O)N(C)C2CCCCC2)CC1` | 21.29 and 68.47 |
| `Cn1cccc1-c1cc(C(=O)N2CCCC2c2ccc(C(N)=O)s2)[nH]n1` (stereo not given) | -8.619 |
| `Cn1c(Cn2cccn2)nnc1C1CCCN(c2ccncc2F)C1` (stereo not given) | -15.67 |
| `O=c1c(NCc2ccncc2)c(NCC(O)CN2CCOCC2)c1=O` (stereo not given) | -3.92 |
| `CCn1cc(CN2CCC(c3[nH]ncc3S(C)(=O)=O)C2)cn1` (stereo not given) | -18 |
| `O=C(O)CSc1nnc(-c2ccn[nH]2)n1-c1ccccc1C(F)(F)F` | 4.818 |
| `O=C(c1cc(-c2cccnc2)[nH]n1)N1CCCC(c2cnccn2)C1` (stereo not given) | -44.13 |
| `CC(C)c1nn(C)c(N2CCOCC2)c1CNC(C)c1ccco1` (stereo not given) | 4.898 |
| `CC1=Nc2c(c(O)nn2C(C)C)C(c2cccnc2)S1` (stereo not given) | -22.9 |
| `CC(=O)N1CCCC2(CN(Cc3ccc(F)cc3)CCO2)C1.O=C(O)C(F)(F)F` (stereo not given) | -1.26 and -5.162 |
| `O=C(O)C(F)(F)F.O=C(O)C(F)(F)F.c1cncc(OCc2noc3c2CN(Cc2ccsc2)CC3)c1` | -13.27 |
| `CC(C)C(=O)Nc1cccc(C(=O)Nc2ccccn2)c1` | -17.87 and 8.144 |
| `CC1CCN(c2nc(O)cc(C3CC(=O)N(C4CCCCC4)C3)n2)CC1` (stereo not given) | -14.15 |
| `Cc1cnc(CNc2ncc(C)c(-c3cnn(C)c3)n2)cn1` | -9.535 and -16.49 |
| `Cc1cc(N2CCN(C(=O)c3cc(Cl)c[nH]3)CC2)nc(C(C)C)n1` | 18.82 |
| `CCN1CCC(CC(=O)NC[C@H]2CCc3ccccc3O2)CC1` | 6.31 and 7.633 |
| `COc1ccc(NC(=O)N2CCC3(CC2)NC(=O)CC3C(=O)O)c(C)c1` (stereo not given) | 13.37 |
| `Cn1ccc2c(-c3nccc(N)n3)ccnc21` | 18.97 |
| `O=C(CNC(=O)c1ccc2c(c1)CCC2)NCCNc1ncccn1` | 12.98 |
| `CCCc1nc(N[C@H]2COC[C@@H]2N2CCCC2)c2cnn(C)c2n1` | 11.02 |
| `O=C(CNc1cc(F)ccc1OCC1CCCO1)N1CCOCC1` (stereo not given) | 8.017 |
| `Cn1nccc1CNS(=O)(=O)c1cc(F)ccc1Br` | 20.46 |
| `COc1ccc(C)cc1CN1CCN(Cc2nccn2C)C(C)C1` (stereo not given) | 2.849 and 20.11 |
| `O=C1CCCN1c1cccc(N2CCC(NCCc3cscn3)CC2)c1` | 24.21 |
| `[H][C@@]12CCN(c3nncs3)C[C@@]1([H])O[C@@H](C(=O)NCCc1ccncc1)C2` | 1.413 |

Repeated from the top, 7 entries:

{"compound": "Cc1cnn(CC2CCCN2CC(=O)Nc2nncs2)c1", "stereo": "stereo not given", "Percent Effect": -9.918}
{"compound": "Cn1cc(Cl)cc1C(=O)N1CCCN(Cc2nccn2C)CC1", "Percent Effect": 2.876}
{"compound": "CCc1ccc(CN2CCC3(CC(C(=O)NCC(C)C)=NO3)C2)o1", "stereo": "stereo not given", "Percent Effect": 4.207}
{"compound": "Cc1ccc2c(n1)N(CCN(C)C)CCN(C(=O)c1ccoc1)C2.O=C(O)C(F)(F)F.O=C(O)C(F)(F)F", "Percent Effect": -22.23}
{"compound": "COc1ccc(OC)c(-c2nc(CN(C)Cc3nncn3C)c(C)o2)c1", "Percent Effect": "-7.102 and -40.07"}
{"compound": "COc1ccc(OCC2CCCN(c3nc(CO)cs3)C2)cc1", "stereo": "stereo not given", "Percent Effect": 7.25}
{"compound": "COCCn1cc(CC(=O)Nc2nc[nH]n2)c2ccccc21", "Percent Effect": "22.88 and 5.453"}